Results taken from patent US10899910B2, “Quaternary cationic polymers” (ECOLAB USA, INC., priority 2016, dated 2021).

Experiment: Corrosion bubble cell test (Linear Polarization Resistance)
Details: 2 ppm with 1% 2ME synergist; CO2-saturated brine/hydrocarbon, 80° C.; three hours baseline (Tables 8, 9)
Protocol: (§1) Cationic polymer salts were evaluated for corrosion performance as compared to a C12-C18 alkyl dimethyl benzyl ammonium chloride via a bubble test procedure. The bubble test simulates low flow areas where little or no mixing of water and oil occurs. The test was conducted using brine (80% of the brine being 3% sodium chloride brine and 20% of the brine being a hydrocarbon containing 75% LVT-200 kerosene oil and 25% xylene). The brine was placed into kettles and purged with carbon dioxide. The brine was continually purged with carbon dioxide to saturate the brine prior to starting the test. After the test began, the test cell was blanketed with carbon dioxide one hour prior to electrode insertion and through the duration of the test to maintain saturation. The kettles were stirred at 150 revolutions per minute (rpm) for the duration of the test to maintain thermal equilibrium at 80° C. The corrosion rate was measured by Linear Polarization Resistance (LPR) techniques. The working electrode used was carbon steel. The counter and reference electrodes were both 1018 carbon steel. The electrodes were all cleaned and polished prior to testing. Data were collected for three hours before 20 ppm of each of the compositions (containing 2 ppm of each of various pentaquaternary cationic polymer salts or the comparative C12-C18 alkyl dimethyl benzyl ammonium chloride and 1% 2-mercaptoethanol (2ME) as synergist in an organic solvent) was dosed into its respective cell. Data were collected overnight. A low concentration of the compositions was used to differentiate between the compositions.
Corrosion bubble cell tests were performed according to the method of Example A1 to evaluate a hexaquaternary cationic polymer salt for corrosion performance as compared to a C12-C18 alkyl dimethyl benzyl ammonium chloride. Data were collected for three hours before 20 ppm of each of the compositions (containing 2 ppm of a hexaquaternary cationic polymer salt or the comparative C12-C18 alkyl dimethyl benzyl ammonium chloride and 1% 2ME as synergist in an organic solvent) was dosed into its respective cell. Data were collected overnight. A low concentration of the compositions was used to differentiate between the compositions.
as §1, with “Data were collected for three hours before 20 ppm of each of the compositions (containing 2 ppm of each of various pentaquaternary cationic polymer salts or the comparative C12-C18 alkyl dimethyl benzyl ammonium chloride and 1% 2-mercaptoethanol (2ME) as synergist in an organic solvent) was dosed into its respective cell. Data were collected overnight. A low concentration of the compositions was used to differentiate between the compositions.” left out

SMILES	Inhibited Corrosion Rate 15 h After Cationic Polymer Salt or Compound Addition
CCCCCCCCCCCCCCCCCC[N+](C)(C)CC(O)CN(CCN(CCN(CC(O)C[N+](C)(C)C)CC(O)C[N+](C)(C)C)CC(O)C[N+](C)(C)C)CC(O)C[N+](C)(C)C.[Cl-].[Cl-].[Cl-].[Cl-].[Cl-] (centres unmarked) [Compound 7]	90 mpy
CCCCCCCCCCCCCCCCCC[N+](C)(C)CC(O)CN(CCN(CCN(CC(O)C[N+](C)(C)C)CC(O)C[N+](C)(C)CCCCCCCCCCCCCCCCCC)CC(O)C[N+](C)(C)C)CC(O)C[N+](C)(C)C.[Cl-].[Cl-].[Cl-].[Cl-].[Cl-] (centres unmarked) [Compound 9]	90 mpy
CCCCCCCCCCCCCCCCCC[N+](C)(C)CC(O)CN(CCN(CCN(CC(O)C[N+](C)(C)CCCCCCCCCCCCCCCCCC)CC(O)C[N+](C)(C)CCCCCCCCCCCCCCCCCC)CC(O)C[N+](C)(C)C)CC(O)C[N+](C)(C)CCCCCCCCCCCCCCCCCC.[Cl-].[Cl-].[Cl-].[Cl-].[Cl-] (centres unmarked) [Compound 11]	55 mpy
CCCCCCCCCCCCCCCCCC[N+](C)(C)CC(O)CN(CCN(CC(O)C[N+](C)(C)CCCCCCCCCCCCCCCCCC)CC(O)C[N+](C)(C)CCCCCCCCCCCCCCCCCC)CCN(CC(O)C[N+](C)(C)CCCCCCCCCCCCCCCCCC)CC(O)C[N+](C)(C)CCCCCCCCCCCCCCCCCC.[Cl-].[Cl-].[Cl-].[Cl-].[Cl-] (centres unmarked) [Compound 12]	115 mpy
CCCCCCCCCCCCCCCCCC[N+](C)(C)CC(O)CN(CCN(CCN(CC(O)C[N+](C)(C)CCCCCCCCCCCCCCCCCC)CC(O)C[N+](C)(C)CCCCCCCCCCCCCCCCCC)CC(O)C[N+](C)(C)CCCCCCCCCCCCCCCCCC)CCN(CC(O)C[N+](C)(C)CCCCCCCCCCCCCCCCCC)CC(O)C[N+](C)(C)CCCCCCCCCCCCCCCCCC.[Cl-].[Cl-].[Cl-].[Cl-].[Cl-].[Cl-] (centres unmarked) [Compound 13]	114 mpy
